Source: paper PMC12678802, “Tudor-based proteomic strategy pan-specifically enriches and identifies protein arginine methylation” (EMBO Reports, 2025)
These are yes or no findings as the source states them, for the method shown. In cells and extracts the contact can be indirect. Some binding calls cover weakened binding; strength is not graded here.

Amino acid sequences for entries named in this document (tags omitted).
UniProt O15371: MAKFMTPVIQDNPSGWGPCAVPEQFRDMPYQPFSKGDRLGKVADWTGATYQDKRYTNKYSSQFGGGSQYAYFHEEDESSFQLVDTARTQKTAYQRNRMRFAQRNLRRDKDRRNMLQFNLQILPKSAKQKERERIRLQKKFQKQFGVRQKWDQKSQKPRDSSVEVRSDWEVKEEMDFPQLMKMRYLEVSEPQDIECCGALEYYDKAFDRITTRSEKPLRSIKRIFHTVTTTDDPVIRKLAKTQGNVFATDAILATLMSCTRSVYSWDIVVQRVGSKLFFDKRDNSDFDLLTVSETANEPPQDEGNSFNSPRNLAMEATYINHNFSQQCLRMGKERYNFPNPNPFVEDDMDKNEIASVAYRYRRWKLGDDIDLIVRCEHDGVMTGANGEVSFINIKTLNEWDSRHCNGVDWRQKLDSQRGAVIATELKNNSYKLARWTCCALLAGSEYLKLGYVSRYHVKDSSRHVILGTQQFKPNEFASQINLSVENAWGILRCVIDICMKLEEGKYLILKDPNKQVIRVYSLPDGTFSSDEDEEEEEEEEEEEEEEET
UniProt Q9Y262: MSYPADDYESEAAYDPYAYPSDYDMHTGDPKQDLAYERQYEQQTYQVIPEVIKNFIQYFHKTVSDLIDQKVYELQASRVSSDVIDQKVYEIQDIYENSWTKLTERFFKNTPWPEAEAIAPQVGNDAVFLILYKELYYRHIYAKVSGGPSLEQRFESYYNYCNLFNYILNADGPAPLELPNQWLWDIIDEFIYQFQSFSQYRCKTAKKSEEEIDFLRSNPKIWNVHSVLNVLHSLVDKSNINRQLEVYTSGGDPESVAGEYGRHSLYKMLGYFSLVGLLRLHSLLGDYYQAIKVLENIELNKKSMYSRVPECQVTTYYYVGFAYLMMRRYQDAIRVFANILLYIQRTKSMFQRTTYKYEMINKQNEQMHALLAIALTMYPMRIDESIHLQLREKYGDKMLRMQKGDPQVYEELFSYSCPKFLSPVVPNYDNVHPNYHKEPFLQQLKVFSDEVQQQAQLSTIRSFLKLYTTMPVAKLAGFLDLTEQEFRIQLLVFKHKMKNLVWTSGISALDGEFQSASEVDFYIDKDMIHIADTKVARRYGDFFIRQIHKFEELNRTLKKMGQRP
UniProt Q99613: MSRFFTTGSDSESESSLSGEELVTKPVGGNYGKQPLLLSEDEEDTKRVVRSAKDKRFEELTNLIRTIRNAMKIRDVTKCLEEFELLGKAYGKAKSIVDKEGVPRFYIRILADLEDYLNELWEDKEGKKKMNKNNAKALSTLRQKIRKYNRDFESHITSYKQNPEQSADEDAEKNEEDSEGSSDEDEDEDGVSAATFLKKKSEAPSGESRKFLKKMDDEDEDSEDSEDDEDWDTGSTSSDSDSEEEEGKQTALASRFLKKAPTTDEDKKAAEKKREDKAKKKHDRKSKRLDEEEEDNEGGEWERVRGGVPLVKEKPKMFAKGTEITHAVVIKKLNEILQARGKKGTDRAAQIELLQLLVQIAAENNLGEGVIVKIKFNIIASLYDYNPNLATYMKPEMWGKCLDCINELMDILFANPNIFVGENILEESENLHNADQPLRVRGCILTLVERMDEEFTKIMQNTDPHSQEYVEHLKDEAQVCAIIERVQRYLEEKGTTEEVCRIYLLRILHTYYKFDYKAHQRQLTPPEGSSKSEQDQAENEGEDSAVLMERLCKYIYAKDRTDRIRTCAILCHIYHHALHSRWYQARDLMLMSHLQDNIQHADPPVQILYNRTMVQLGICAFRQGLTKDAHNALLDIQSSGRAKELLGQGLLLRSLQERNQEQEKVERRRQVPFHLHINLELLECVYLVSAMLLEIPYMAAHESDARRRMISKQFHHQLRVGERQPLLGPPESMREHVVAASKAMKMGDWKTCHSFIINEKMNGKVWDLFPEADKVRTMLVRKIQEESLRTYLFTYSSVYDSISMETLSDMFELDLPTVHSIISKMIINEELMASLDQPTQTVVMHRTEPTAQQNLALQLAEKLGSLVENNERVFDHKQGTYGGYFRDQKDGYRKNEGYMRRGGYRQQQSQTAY
UniProt Q9UBQ5: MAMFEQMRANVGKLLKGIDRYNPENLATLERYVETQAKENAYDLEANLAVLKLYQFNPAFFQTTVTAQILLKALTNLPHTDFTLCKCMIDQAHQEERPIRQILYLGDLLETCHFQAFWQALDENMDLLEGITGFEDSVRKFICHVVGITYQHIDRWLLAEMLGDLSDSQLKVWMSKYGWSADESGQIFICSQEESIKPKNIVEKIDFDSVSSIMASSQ

How the values were obtained:
[1] = molecular target: Myc-eIF3D (full-length human eIF3D with a C-terminal Myc-tag and His6-tag) (human) (UniProt O15371); test: co-IP; HEK293T co-transfected with Myc-eIF3D and Flag-PRMT1 (or empty pcDNA3.1); anti-Myc antibody and Protein A magnetic beads; western blot
[2] = molecular target: Flag-Myc-eIF3L (full-length human eIF3L with a C-terminal Flag-tag and Myc-tag) (human) (UniProt Q9Y262); test: co-IP; HEK293T transfected with Flag-Myc-eIF3L; anti-DYKDDDDK magnetic agarose beads overnight at 4 °C; washes with 500 mM KCl; eluted with 100 mM glycine pH 2.8; western blot, Coomassie stain and MS
[3] = molecular target: Full-length Flag-Myc-eIF3L (human) (UniProt Q9Y262); test: co-IP; Flag-Myc-eIF3L transfected into HEK293T; lysate (50 mM HEPES-KOH pH 7.5, 150 mM KCl, 5 mM MgCl2, 0.5% NP-40) incubated with anti-DYKDDDDK magnetic agarose beads overnight at 4 °C; washed three times with 500 mM KCl buffer; eluted with 100 mM glycine pH 2.8; eluate on Coomassie stained SDS-PAGE

Row | binding [3] | Substance | further results
1 | – | Flag-PRMT1 (full-length human PRMT1 with an N-terminal Flag-tag and His6-tag) (from UniProt Q99873-1 1-371) (enzyme) | binding [1]: binds
2 | – | eIF3D (endogenous, in the eIF3 complex) (from UniProt O15371 1-548) | binding [2]: binds
3 | binds | eIF3 subunit c (band labelled 'c' in the purified eIF3 complex) (from UniProt Q99613 1-913) | –
4 | binds | eIF3 subunit k (band labelled 'k' in the purified eIF3 complex) (from UniProt Q9UBQ5 1-218) | –
